Consider one molecule from article PMC9668127.

Results are given in words; binding and its absence hold for the method and conditions named. Binding seen in cells or lysates may run through a third protein. A yes stands for co-enrichment or nearness to the bait. Other partners may have been found.

This test concerns the target Bombyx mori sucrose hydrolase (BmSUH), endogenous midgut protein (Bombyx mori (endogenous in larval midgut)). The test is described as follows: affinity purification with mass spectrometry; endogenous BmSUH immunoprecipitated with anti-BmSUH antibody and protein A+G agarose from midgut lysates of BmNPV-infected WT larvae (72 and 96 hpi; controls: uninfected WT, infected ΔBmSUH); IP buffer 20 mM Tris pH 7.5, 150 mM NaCl, 1% Triton X-100, 1 mM PMSF, 4°C overnight; 70 kDa and 100 kDa SDS-PAGE bands analysed by LC-MS/MS.

B1: P74 (PIF0) of BmNPV, from infected midgut (protein, UniProt O92491 1-645)
chain: MAVLTAVDLTNASRYAIHMHRLEFISRWRTRFPHILIDYTLRPASSDDDYYVPPKLADRALAVKLTFSKRGCESMSCYPFHETGVVSNTTPFMYTQTSETRVGYAQPACYHLDRAAAMREGAENKVQSAEFRYTPDNRCILVDSLSKMYFNSPYLRTEEHTIMGVDDVPAFNVRPDPDPLFPERFKGEFNEAYCRRFGRNLFNGGCSFRWWESLVGFVLGDTILVTFKMLANNVFSELRNFDYRAPSSILPPRPNVDSNAILAQWRSVRDTTTDLEFEKLFTKRPTLNDLGMIVDGSPVQITYTAETGFTKTPITYNYRGTERVHVEHFEALDRSISDQDLESIITKFLEDYAIIFGIATDAGFEMLMSGFKSMLKKINTTLIPALKRMLVSTTRRVTARILGETYKAAIVHSFNAIAIKTLTTTAKALTRIAIKASSVIGIVLILLTLADLVLALWDPFGYNNMFPREFPDDMSRTFLTAYFESLDNTTSREIIEFMPEFFSDMVETDDKATFESLFHLLNYVTSLEVNSDGQMLKLDEGDKIEDFDESTLVGKALATSSLYTRMEFMQYTFRQNTILSMNKKNNNFNQIIMGLFATNTIVAFTAFVIHKQLIFFIFFVIFLMITFYYIVKESYGYYKTIDLLF
For B1, the binding entry is listed as “binds”.
